Measurements as given in patent US20060177448A1, “Inhibiting HER2 shedding with matrix metalloprotease antagonists” (Genentech, Inc., priority 2005, published 2006).
Results are given in words; binding and its absence hold for the method and conditions named. In cells and extracts the contact can be indirect. Some binding calls cover weakened binding; strength is not graded here.

Amino acid sequences for entries named in this document (tags omitted). Residues count along the entry.
UniProt P51511, residues 132-625: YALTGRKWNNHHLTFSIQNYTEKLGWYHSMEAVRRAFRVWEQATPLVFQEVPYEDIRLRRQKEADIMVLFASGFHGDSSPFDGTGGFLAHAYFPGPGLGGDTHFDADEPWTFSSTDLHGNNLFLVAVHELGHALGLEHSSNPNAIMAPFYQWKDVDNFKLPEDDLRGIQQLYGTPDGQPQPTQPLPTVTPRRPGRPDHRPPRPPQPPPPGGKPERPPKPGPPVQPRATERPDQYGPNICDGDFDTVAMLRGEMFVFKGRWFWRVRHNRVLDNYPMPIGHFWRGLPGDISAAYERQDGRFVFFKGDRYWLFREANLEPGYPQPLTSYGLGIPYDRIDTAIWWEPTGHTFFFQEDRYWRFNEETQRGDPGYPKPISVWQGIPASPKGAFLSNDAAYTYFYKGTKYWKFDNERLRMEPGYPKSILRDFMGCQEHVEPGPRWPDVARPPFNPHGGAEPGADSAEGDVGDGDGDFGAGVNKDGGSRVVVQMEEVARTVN

Target: Flag-HER2 (pRK5.Flag-HER2) (human) (UniProt P04626)
Experiment: co-immunoprecipitation from co-transfected Cos-7 cells, anti-FLAG resin, Western blot

Q: “soluble MMP-15 with a C-terminal V5 His epitope (sMMP-15V5His) (from UniProt P51511 132-625) (enzyme)” was tested. Which binding did it give?
A: The binding was “binds”.
